These are yes or no findings as the source states them, for the method shown. Binding seen in cells or lysates may run through a third protein. Some binding calls cover weakened binding; strength is not graded here. Sequences can lack the tags named with a protein.
Target: T1, AtPolλ-C-TAP (Arabidopsis thaliana DNA polymerase λ with a C-terminal TAP tag) (Arabidopsis thaliana) (UniProt Q9FNY4)
T1 sequence: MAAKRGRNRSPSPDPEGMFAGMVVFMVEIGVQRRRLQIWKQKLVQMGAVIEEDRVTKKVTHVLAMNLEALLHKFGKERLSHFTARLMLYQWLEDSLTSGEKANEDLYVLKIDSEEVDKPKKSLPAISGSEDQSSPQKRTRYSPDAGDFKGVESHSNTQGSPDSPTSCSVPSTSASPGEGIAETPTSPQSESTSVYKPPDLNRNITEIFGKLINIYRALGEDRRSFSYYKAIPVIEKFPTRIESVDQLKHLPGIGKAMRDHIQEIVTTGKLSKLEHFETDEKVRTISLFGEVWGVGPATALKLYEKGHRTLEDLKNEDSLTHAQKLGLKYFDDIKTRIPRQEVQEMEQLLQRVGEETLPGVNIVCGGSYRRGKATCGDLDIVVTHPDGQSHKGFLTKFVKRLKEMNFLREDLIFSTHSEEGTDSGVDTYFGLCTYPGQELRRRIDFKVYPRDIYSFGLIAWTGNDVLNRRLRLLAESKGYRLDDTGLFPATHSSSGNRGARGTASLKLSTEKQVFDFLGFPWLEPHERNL
Experiment: co-IP; leaves of Agro-infiltrated N. benthamiana co-expressing AtPolλ-C-TAP and AtHSP90.1-C-TAP, cross-linked with 1% formaldehyde; extract immunoprecipitated with affinity purified anti-AtPolλ polyclonal antibody, probed with anti-HSP90 antibody (1:500)

Amino acid sequences for entries named in this document (tags omitted).
UniProt P27323: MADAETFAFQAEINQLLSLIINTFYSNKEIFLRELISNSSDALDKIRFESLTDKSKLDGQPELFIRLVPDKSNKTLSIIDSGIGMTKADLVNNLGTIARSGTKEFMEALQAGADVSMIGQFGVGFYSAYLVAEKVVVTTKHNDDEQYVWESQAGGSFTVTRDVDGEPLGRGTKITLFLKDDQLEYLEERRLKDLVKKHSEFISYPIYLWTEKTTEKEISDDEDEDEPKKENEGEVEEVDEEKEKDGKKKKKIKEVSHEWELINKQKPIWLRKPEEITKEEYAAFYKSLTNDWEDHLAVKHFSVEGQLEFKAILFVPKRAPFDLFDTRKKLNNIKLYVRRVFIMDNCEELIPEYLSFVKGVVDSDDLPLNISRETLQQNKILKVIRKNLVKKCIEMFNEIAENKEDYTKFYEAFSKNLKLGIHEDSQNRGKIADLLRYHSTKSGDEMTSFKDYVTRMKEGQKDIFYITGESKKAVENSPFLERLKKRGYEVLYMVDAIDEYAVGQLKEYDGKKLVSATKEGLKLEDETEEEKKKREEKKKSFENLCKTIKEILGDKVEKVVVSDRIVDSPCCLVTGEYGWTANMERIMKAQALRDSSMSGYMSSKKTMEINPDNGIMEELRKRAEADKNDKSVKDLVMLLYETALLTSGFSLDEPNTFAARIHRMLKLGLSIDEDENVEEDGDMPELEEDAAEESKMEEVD

binding: binds
Substance: AtHSP90.1-C-TAP (Arabidopsis thaliana HSP90.1 with a C-terminal TAP tag) (from UniProt P27323 1-700)

Source: publication PMC4521722
